Test results published in the supplement of paper PMC10338343.
± gives the standard deviation. This is one part of the list. Many entries were measured with a wide error.

Tested on: EfPiwi piRISC loaded with L1MC piRNA (26 nt)
Assay: pre-steady-state target cleavage rate (min^-1); guide: L1MC piRNA 5'p-UAACUAAAUACUAUGCAAGCUGUAGG; MIWI and MILI are mouse PIWI proteins and EfPiwi is from a freshwater sponge; tags in brackets are library labels; higher = faster piRNA-guided slicing of the target
Outline: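 Cleave-'n-Seq reactions paired 0.1 nM transcribed, DNA-blocked target RNA library with 1 nM active affinity-purified piRISC holding one synthetic guide, plus or minus 500 nM GTSF1 partner protein, in HEPES–potassium acetate buffer at 33 °C for 0–8 or 0–960 min. After sequencing of uncleaved targets and normalisation to depth and weakly complementary targets, the pre-steady-state cleavage rate was taken from a burst-and-steady-state fit. Three trials were pooled, and k3 was capped at 0.0001 min^-1.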

[1] = auxiliary factor: 500 nM Ephydatia muelleri Gtsf1
[2] = auxiliary factor: none (no Gtsf1)

Sequence	pre-steady-state target cleavage rate [1]	pre-steady-state target cleavage rate [2]
UCCUGGAUGUGCUUGCAUAGUAAUUUAGUUA	0.00055 ± 0.015	0.00434 ± 0.0045
UCCUGGAACAGCUUGCAUAGUGUUUAGUUA	0.0084 ± 0.0024	0.000668 ± 0.011
UCCUGGAUGUCGAAGCAUAGUAUCUUAGUUA	0.00163 ± 0.0055	0.0004 ± 0.021
UCCUGGUACAGCUUCGAUAGUAUUUAGUUA	0.00411 ± 0.0026	0.000413 ± 0.022
UCCUGGAUCUGCUUGCAUAGUAAUUAGUUA	0.0152 ± 0.005	0.0241 ± 0.0099
UCCUGGAUGUGGUUGCAUAGUAUUUUGUUA	0.00236 ± 0.0032	0.000991 ± 0.013
UCCUGGAUGAGCUUGCAUAGUAUAUAGUUA	0.00625 ± 0.0026	0.00169 ± 0.006
UCCUGGAUGUCGAACGUUAGUAUAUAGUUA	0.000305 ± 0.019	0.000122 ± 0.046
UCCUGGAUGAGCUUGCAUAGUAUAAAGUUA	0.00848 ± 0.0042	0.00076 ± 0.01
UCCUGGUACAGCAUGCAUAGUAUUUACUUA	0.00168 ± 0.0031	0.000604 ± 0.015
UCCUGCAACAGCUUGCAUACUAUUUAGUUA	0.0112 ± 0.0029	0.0011 ± 0.0065
UCCUGGUAGUGCUUGCAUAGUAUUUAGUUA	0.0152 ± 0.0047	0.00155 ± 0.0076
UCCUGGAUGUCGAACGUUCAGUAUUUAGUUA	0.000158 ± 0.02	0.000238 ± 0.025
UCCUGGAUCAGCUAGCAUACUAUUUAGUUA	0.00342 ± 0.0018	0.000499 ± 0.015
UCCUGGAAGAGCUUGCAUAGAAUUUAGUUA	0.00403 ± 0.0018	0.001 ± 0.011
UCCUGGAAGAGCUUGCAUACUAUUUAGUUA	0.00438 ± 0.0026	0.00581 ± 0.0041
UCCUGGAUGAGCUUGCAUAGUAUUGUAGUUA	0.00171 ± 0.0039	0.00132 ± 0.0096
UCCUGGAUGAGCUAGCAUUGUAUUUAGUUA	0.00519 ± 0.0032	0.00038 ± 0.015
UCCUGGAUGUCGAACGUUAGUAUUUAGAUUA	0.000101 ± 0.084	< 0.0001
UCCUGGAUCAGCAUGCAUAGUAUUUUGUUA	0.00227 ± 0.0039	0.00033 ± 0.026
UCCUGCUACAGCUUGGAUAGUAUUUUGUUA	0.00556 ± 0.002	0.000632 ± 0.0092
UCCUGCUACAGCUAGCAUAGUAUUUACUUA	0.00364 ± 0.0025	0.000367 ± 0.017
UCCUGCUACAGCUUGCUUAGUUUUUAGUUA	0.0055 ± 0.0019	0.000708 ± 0.0097
UCCUGGAACAGCUUGGUUAGUAUUUAGUUA	0.0135 ± 0.005	0.00183 ± 0.0073
UCCUGGAUGUCGAAGCAUACGUAUUUAGUUA	0.000161 ± 0.034	0.000326 ± 0.021
UCCUGGAACAGCUUGCAUUGUAUUUUGUUA	0.00509 ± 0.0026	0.00126 ± 0.0065
UCCUGGAUGAGCUUGCAUUGUAUAUAGUUA	0.00208 ± 0.006	0.000447 ± 0.019

Single records (already shown):
UCCUGGAUGAGCUUGCAUAGUAUAUAGUUA as listed: pre-steady-state target cleavage rate [1] = 0.00625 ± 0.0026; pre-steady-state target cleavage rate [2] = 0.00169 ± 0.006
UCCUGGAUCAGCUAGCAUACUAUUUAGUUA as listed: pre-steady-state target cleavage rate [1] = 0.00342 ± 0.0018; pre-steady-state target cleavage rate [2] = 0.000499 ± 0.015
UCCUGGAUGUCGAACGUUAGUAUUUAGAUUA as listed: pre-steady-state target cleavage rate [1] = 0.000101 ± 0.084; pre-steady-state target cleavage rate [2] = < 0.0001
UCCUGGAUGUGCUUGCAUAGUAAUUUAGUUA as listed: pre-steady-state target cleavage rate [1] = 0.00055 ± 0.015; pre-steady-state target cleavage rate [2] = 0.00434 ± 0.0045

Following part:

Sequence	pre-steady-state target cleavage rate [1]	pre-steady-state target cleavage rate [2]
UCCUGGAUGAGCUUGCAUAGUAUAUAGAUA	0.00245 ± 0.0025	0.00063 ± 0.018
UCCUGGAUCAGCUUGCAUACUAUUUAGUUA	0.0114 ± 0.0021	0.00287 ± 0.0038
UCCUGGUAGAGCUUGCAUAGUAUUAAGUUA	0.00385 ± 0.0022	0.0012 ± 0.0099
UCCUGGUACAGCUUGCAUAGCAUUUAGUUA	0.00214 ± 0.0027	0.000914 ± 0.0094
UCCUGGUACAGCUUGCAUAGUAUAAAGUAA	0.00243 ± 0.0022	0.000368 ± 0.027
UCCUGGUACAGCUUGCAUAGUAUAUAGUUA	0.00533 ± 0.0027	0.000348 ± 0.03
UCCUGGAUGUCCUUGCAUAGUAUUUAGUUG [g2:g19:cont:t1G]	0.00478 ± 0.0018	0.000557 ± 0.011
UCCUGGAUGUCGAUGCAUAGUAUUCUAGUUA	0.000343 ± 0.0097	0.000154 ± 0.054
UCCUGGAUCUGCUUGCAUAGUAUUUACUUA	0.00136 ± 0.0038	0.000323 ± 0.026
UCCUGGAUGUGCUAGCAUAGUUUUUAGUUA	0.000322 ± 0.021	0.000318 ± 0.033
UCCUGGAUCAGCUUGCAUAGUAUUUUAGUUA	0.0214 ± 0.0071	0.0111 ± 0.0065
UCCUGGAUGUCGAUGCAUAGUAUUUAGUUG [g2:g17:cont:t1G]	0.00159 ± 0.0046	0.000141 ± 0.059
UCCUGGAUGAGCUUGCUUAGUAUAUAGUUA	0.00154 ± 0.0044	0.000988 ± 0.0099
UCCUGGUACAGCUUGCAUAGUUAUUUAGUUA	0.000972 ± 0.0053	0.0013 ± 0.0082
UCCUGGAUCAGCUUGCAUAGUAUUAACUUA	0.0015 ± 0.004	0.0011 ± 0.0093
UCCUGCUACACGCUUGCAUAGUAUUUAGUUA	0.00609 ± 0.0019	0.000517 ± 0.012
UCCUGGAUGUCGAUCCAUAGUAUUUACUUA	0.000446 ± 0.013	< 0.0001
UCCUGGAUGAGCUUGCAUAGUAUUUUAGUUA	0.00631 ± 0.0035	0.00142 ± 0.0097
UCCUGGAUGAGCUUGCAUAGUAUAAAGUAA	0.000951 ± 0.0066	0.000366 ± 0.024
UCCUGGAUCAGCAUGCAUUGUAUUUAGUUA	0.00421 ± 0.0021	0.00039 ± 0.018
UCCUGGAUGUCGUUGCAUAGUAUUUAGUUU [g2:g18:cont:t1U]	0.00135 ± 0.005	0.000512 ± 0.02
UCCUGGUACAGCUUGCUAUGUAUUUAGUUA	0.0029 ± 0.0044	0.00143 ± 0.0065
UCCUGGAUGAGCUUGCAUAGUAUCUUAGUUA	0.0147 ± 0.005	0.00298 ± 0.0043
UCCUGGUACUGCUAGCAUAGUAUUUAGUUA	0.00467 ± 0.0022	0.000487 ± 0.019
UCCUGGAUGAGCUAUGCAUAGUAUUUAGUUA	0.0256 ± 0.0076	0.00124 ± 0.0058
UCCUGGAUGUGCUUGCAUAGUAUUUAGUGUA	0.00208 ± 0.0039	0.00114 ± 0.01
UCCUGGAUGUGCUUGCAUAGUAUGUUAGUUA	0.00406 ± 0.0038	0.000831 ± 0.013

Sequence	pre-steady-state target cleavage rate [1]	pre-steady-state target cleavage rate [2]
UCCUGGAUCAGCGUGCAUAGUAUUUAGUUA	0.0619 ± 0.012	0.000618 ± 0.018
UCCUGGUACAGCUUGCAUAGUAUUUCAGUUA	0.00172 ± 0.0063	0.000417 ± 0.027
UCCUGGUACACCUUGCAUAGUAUUAAGUUA	0.00356 ± 0.0032	0.000237 ± 0.046
UCCUGGAACAGCAUGCAUUGUAUUUAGUUA	0.00504 ± 0.002	0.0006 ± 0.014
UCCUGGAACAGCUUGCAUAGUUUUUACUUA	0.000494 ± 0.016	0.000512 ± 0.016
UCCUGGAUGUGCUUGCAAAGUAUUAAGUUA	0.0026 ± 0.005	0.000595 ± 0.017
UCCUGGAACAGCAUGCAUAGUAUUUAGUAA	0.00384 ± 0.0023	0.000233 ± 0.032
UCCUGGAUGAGCUUGCUAUGUAUUUAGUUA	0.00134 ± 0.0051	0.000614 ± 0.013
UCCUGGAACACCUUGCAUAGUAAUUAGUUA	0.00283 ± 0.0022	0.000846 ± 0.0099
UCCUGCUACAGCUUGCUAGUAUUUAGUUA	0.00473 ± 0.0031	0.00163 ± 0.005
UCCUGGAUGUGCUAGCAUAGUAUUUUGUUA	0.000785 ± 0.0043	0.000842 ± 0.012
UCCUGGUACAGCUAGCAUACUAUUUAGUUA	0.00217 ± 0.0031	0.000461 ± 0.021
UCCUGGAUCUGCAUGCAUAGUAUUUAGUUA	0.0798 ± 0.021	0.00086 ± 0.01
UCCUGGAUGUGCUUGCAUAGAAUUUACUUA	0.000255 ± 0.026	0.000306 ± 0.024
UCCUGGAUCAGCAUGGAUAGUAUUUAGUUA	0.00169 ± 0.0039	0.000214 ± 0.031
UCCUGGAAGAGCUUGCAUAGUAUUUAGUUA	0.0725 ± 0.016	0.0015 ± 0.0068
UCCUCCUACAGCUUGCAUACUUUUUAGUUA	0.00233 ± 0.0026	0.000421 ± 0.01
UCCUGGUACAGCUAGCAUAGUAUUUUGUUA	0.00396 ± 0.0023	0.000565 ± 0.018
UCCUGGAUGAGCUUGCAUUGUAUUUAGUUA	0.00376 ± 0.0029	0.00114 ± 0.0084
UCCUGGAUCACCUUGCAUAGUUUUUAGUUA	0.00185 ± 0.0052	0.000555 ± 0.015
UCCUGGAUGUCGAUGCAUAGUAUUUAGAAA	0.00216 ± 0.0032	0.000529 ± 0.011
UCCUGGUACAGCUAGCAUUGUAUUUAGUUA	0.00108 ± 0.01	0.000832 ± 0.012
UCCUGGUACAGCUUGCAUAGUAUUUUGUAA	0.00379 ± 0.0027	0.000633 ± 0.014
UCCUCCUACACCUAGCAUAGUAUUUAGUUA	0.00718 ± 0.0027	0.00055 ± 0.0091
UCCUGGAUCACGUUGCAUAGUAUUUAGUUA	0.0686 ± 0.017	0.00188 ± 0.0074
UCCUGGAUGAGGUUGCUUAGUAUUUAGUUA	0.00088 ± 0.0075	0.000585 ± 0.018
